Data as given in ChEMBL document CHEMBL4513158, “CO-ADD screening of RKDF (India) compounds”.
The other results are listed elsewhere or left out. Measured potencies and affinities stand elsewhere.

These molecules were tested on Pseudomonas aeruginosa. Conditions: Concentration 32 ug.mL-1; ASSAY_TEST Inhibition of Bacterial Growth; detection method Absorption (OD600); MEDIA CAMHB; plate type 384well; NBS; CORNING #3640; time 18 hr.

Row | Compound | Inhibition
1 | C=C[C@H]1[C@H](O[C@@H]2O[C@H](CO)[C@@H](O)[C@H](O)[C@H]2O)OC=C2C(=O)OCC[C@]21O [SWERTIAMARIN] | 17.49%
2 | CN(C)C(=N)NC(=N)N.Cl [METFORMIN HYDROCHLORIDE] | 8.65%
